Experimental data: article PMC11140747
These are yes or no findings as the source states them, for the method shown. Binding seen in cells or lysates may run through a third protein. A yes stands for co-enrichment or nearness to the bait. Other partners may have been found.

By UniProt entry, the sequences of proteins in these tests, tags left out.
UniProt Q9UJ70: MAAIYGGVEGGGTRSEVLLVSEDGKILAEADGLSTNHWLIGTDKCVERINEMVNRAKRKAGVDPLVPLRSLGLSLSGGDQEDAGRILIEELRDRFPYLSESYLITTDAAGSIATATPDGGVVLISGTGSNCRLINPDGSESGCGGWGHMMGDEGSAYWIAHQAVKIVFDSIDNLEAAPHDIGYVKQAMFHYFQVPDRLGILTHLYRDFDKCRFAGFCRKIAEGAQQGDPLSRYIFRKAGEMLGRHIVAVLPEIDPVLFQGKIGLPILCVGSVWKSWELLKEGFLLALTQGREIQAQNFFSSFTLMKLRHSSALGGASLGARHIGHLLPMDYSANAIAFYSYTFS
UniProt Q13049: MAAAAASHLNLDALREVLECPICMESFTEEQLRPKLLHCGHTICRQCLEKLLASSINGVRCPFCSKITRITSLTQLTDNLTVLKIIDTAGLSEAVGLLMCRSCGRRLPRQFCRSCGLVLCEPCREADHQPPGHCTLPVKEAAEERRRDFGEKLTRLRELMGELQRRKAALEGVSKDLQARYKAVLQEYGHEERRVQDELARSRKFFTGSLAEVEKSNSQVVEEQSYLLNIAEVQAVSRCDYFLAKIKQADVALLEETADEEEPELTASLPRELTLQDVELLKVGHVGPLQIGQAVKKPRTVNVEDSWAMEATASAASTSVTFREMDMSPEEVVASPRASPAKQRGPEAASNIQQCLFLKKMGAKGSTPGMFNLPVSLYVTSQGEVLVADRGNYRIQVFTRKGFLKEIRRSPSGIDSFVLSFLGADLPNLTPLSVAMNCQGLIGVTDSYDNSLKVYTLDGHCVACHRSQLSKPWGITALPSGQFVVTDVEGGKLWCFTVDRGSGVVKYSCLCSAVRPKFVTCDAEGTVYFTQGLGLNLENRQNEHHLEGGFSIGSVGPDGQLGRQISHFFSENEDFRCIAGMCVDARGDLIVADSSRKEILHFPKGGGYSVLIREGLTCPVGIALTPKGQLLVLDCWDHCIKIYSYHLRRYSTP
UniProt P35269: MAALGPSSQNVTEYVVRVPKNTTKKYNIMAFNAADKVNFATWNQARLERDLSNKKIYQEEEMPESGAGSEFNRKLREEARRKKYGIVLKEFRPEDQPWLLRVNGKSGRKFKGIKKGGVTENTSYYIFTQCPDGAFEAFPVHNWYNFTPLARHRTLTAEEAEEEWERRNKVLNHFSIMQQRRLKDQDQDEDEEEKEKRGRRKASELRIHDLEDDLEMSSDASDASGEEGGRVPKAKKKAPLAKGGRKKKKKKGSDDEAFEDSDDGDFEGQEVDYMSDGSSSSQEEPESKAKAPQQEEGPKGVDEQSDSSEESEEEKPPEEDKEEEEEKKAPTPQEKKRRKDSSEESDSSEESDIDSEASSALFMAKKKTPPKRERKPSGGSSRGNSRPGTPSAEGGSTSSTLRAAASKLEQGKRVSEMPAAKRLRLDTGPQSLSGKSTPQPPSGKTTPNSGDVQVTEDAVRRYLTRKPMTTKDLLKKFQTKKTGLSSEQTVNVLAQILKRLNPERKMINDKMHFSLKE
UniProt O95168: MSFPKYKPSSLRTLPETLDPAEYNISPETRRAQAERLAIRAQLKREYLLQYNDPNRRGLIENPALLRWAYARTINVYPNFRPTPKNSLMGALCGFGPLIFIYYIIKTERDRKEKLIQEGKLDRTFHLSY
UniProt P35637: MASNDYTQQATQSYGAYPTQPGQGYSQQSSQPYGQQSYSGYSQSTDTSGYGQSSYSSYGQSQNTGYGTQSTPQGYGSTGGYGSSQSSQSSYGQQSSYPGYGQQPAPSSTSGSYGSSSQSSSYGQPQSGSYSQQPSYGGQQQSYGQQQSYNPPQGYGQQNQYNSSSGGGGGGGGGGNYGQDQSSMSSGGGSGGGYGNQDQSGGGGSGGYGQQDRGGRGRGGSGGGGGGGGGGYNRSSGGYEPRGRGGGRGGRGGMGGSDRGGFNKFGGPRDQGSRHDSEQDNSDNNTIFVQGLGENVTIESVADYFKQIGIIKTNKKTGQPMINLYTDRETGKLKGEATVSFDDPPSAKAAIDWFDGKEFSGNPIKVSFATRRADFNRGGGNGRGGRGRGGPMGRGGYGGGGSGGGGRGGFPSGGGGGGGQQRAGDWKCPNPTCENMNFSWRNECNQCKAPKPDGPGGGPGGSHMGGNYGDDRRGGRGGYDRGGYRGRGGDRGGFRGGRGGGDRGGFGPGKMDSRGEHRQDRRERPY

B1: ATP5I (protein, UniProt P56385 1-69)
chain: MVPPVQVSPLIKLGRYSALFLGVAYGATRYNYLKPRAEEERRIAAEEKKKQDELKRIARELAEDDSILK
B2: ATP5J (protein, UniProt P18859 33-108)
chain: NKELDPIQKLFVDKIREYKSKRQTSGGPVDASSEYQQELERELFKLKQMFGNADMNTFPTFKFEDPKFEVIEKPQA
B3: SREK1 (protein, UniProt Q8WXA9 1-508)
chain: MTSLMPGAGLLPIPTPNPLTTLGVSLSSLGAIPAAALDPNIATLGEIPQPPLMGNVDPSKIDEIRRTVYVGNLNSQTTTADQLLEFFKQVGEVKFVRMAGDETQPTRFAFVEFADQNSVPRALAFNGVMFGDRPLKINHSNNAIVKPPEMTPQAAAKELEEVMKRVREAQSFISAAIEPESGKSNERKGGRSRSHTRSKSRSSSKSHSRRKRSQSKHRSRSHNRSRSRQKDRRRSKSPHKKRSKSRERRKSRSRSHSRDKRKDTREKIKEKERVKEKDREKEREREKEREKEKERGKNKDRDKEREKDREKDKEKDREREREKEHEKDRDKEKEKEQDKEKEREKDRSKEIDEKRKKDKKSRTPPRSYNASRRSRSSSRERRRRRSRSSSRSPRTSKTIKRKSSRSPSPRSRNKKDKKREKERDHISERRERERSTSMRKSSNDRDGKEKLEKNSTSLKEKEHNKEPDSSVSKEVDDKDAPRTEENKIQHNGNCQLNEENLSTKTEAV
B4: PRPF3 (protein, UniProt O43395 1-683)
chain: MALSKRELDELKPWIEKTVKRVLGFSEPTVVTAALNCVGKGMDKKKAADHLKPFLDDSTLRFVDKLFEAVEEGRSSRHSKSSSDRSRKRELKEVFGDDSEISKESSGVKKRRIPRFEEVEEEPEVIPGPPSESPGMLTKLQIKQMMEAATRQIEERKKQLSFISPPTPQPKTPSSSQPERLPIGNTIQPSQAATFMNDAIEKARKAAELQARIQAQLALKPGLIGNANMVGLANLHAMGIAPPKVELKDQTKPTPLILDEQGRTVDATGKEIELTHRMPTLKANIRAVKREQFKQQLKEKPSEDMESNTFFDPRVSIAPSQRQRRTFKFHDKGKFEKIAQRLRTKAQLEKLQAEISQAARKTGIHTSTRLALIAPKKELKEGDIPEIEWWDSYIIPNGFDLTEENPKREDYFGITNLVEHPAQLNPPVDNDTPVTLGVYLTKKEQKKLRRQTRREAQKELQEKVRLGLMPPPEPKVRISNLMRVLGTEAVQDPTKVEAHVRAQMAKRQKAHEEANAARKLTAEQRKVKKIKKLKEDISQGVHISVYRVRNLSNPAKKFKIEANAGQLYLTGVVVLHKDVNVVVVEGGPKAQKKFKRLMLHRIKWDEQTSNTKGDDDEESDEEAVKKTNKCVLVWEGTAKDRSFGEMKFKQCPTENMAREHFKKHGAEHYWDLALSESVLESTD
B5: RNF111 (protein, UniProt Q6ZNA4 1-994)
chain: MSQWTPEYNELYTLKVDMKSEIPSDAPKTQESLKGILLHPEPIGAAKSFPAGVEMINSKVGNEFSHLCDDSQKQEKEMNGNQQEQEKSLVVRKKRKSQQAGPSYVQNCVKENQGILGLRQHLGTPSDEDNDSSFSDCLSSPSSSLHFGDSDTVTSDEDKEVSVRHSQTILNAKSRSHSARSHKWPRTETESVSGLLMKRPCLHGSSLRRLPCRKRFVKNNSSQRTQKQKERILMQRKKREVLARRKYALLPSSSSSSENDLSSESSSSSSTEGEEDLFVSASENHQNNPAVPSGSIDEDVVVIEASSTPQVTANEEINVTSTDSEVEIVTVGESYRSRSTLGHSRSHWSQGSSSHASRPQEPRNRSRISTVIQPLRQNAAEVVDLTVDEDEPTVVPTTSARMESQATSASINNSNPSTSEQASDTASAVTSSQPSTVSETSATLTSNSTTGTSIGDDSRRTTSSAVTETGPPAMPRLPSCCPQHSPCGGSSQNHHALGHPHTSCFQQHGHHFQHHHHHHHTPHPAVPVSPSFSDPACPVERPPQVQAPCGANSSSGTSYHEQQALPVDLSNSGIRSHGSGSFHGASAFDPCCPVSSSRAAIFGHQAAAAAPSQPLSSIDGYGSSMVAQPQPQPPPQPSLSSCRHYMPPPYASLTRPLHHQASACPHSHGNPPPQTQPPPQVDYVIPHPVHAFHSQISSHATSHPVAPPPPTHLASTAAPIPQHLPPTHQPISHHIPATAPPAQRLHPHEVMQRMEVQRRRMMQHPTRAHERPPPHPHRMHPNYGHGHHIHVPQTMSSHPRQAPERSAWELGIEAGVTAATYTPGALHPHLAHYHAPPRLHHLQLGALPLMVPDMAGYPHIRYISSGLDGTSFRGPFRGNFEELIHLEERLGNVNRGASQGTIERCTYPHKYKKVTTDWFSQRKLHCKQDGEEGTEEDTEEKCTICLSILEEGEDVRRLPCMHLFHQVCVDQWLITNKKCPICRVDIEAQLPSES

Molecular target: site-specifically pyrophosphorylated N-acetylglucosamine kinase (ppS76-NAGK), His6-tagged (UniProt Q9UJ70)
Experiment: affinity purification with mass spectrometry; HEK293T lysates incubated with His6-tagged wt-NAGK or ppS76-NAGK; immobilised on nickel beads, washed, eluted with imidazole; high-resolution mass spectrometry, LFQ values of ppS76-NAGK versus wt-NAGK compared (volcano plot, thresholds log2 > 2 and -log10P > 2); only the target purified

binding, binds:
TRIM32 (from UniProt Q13049 1-653)
GTF2F1 (from UniProt P35269 1-517)
NDUFB4 (from UniProt O95168 1-129)
FUS (from UniProt P35637 1-526)
B1
B2
B3
B4
B5
